This test addresses 3xHA-TOGARAM1 (human). Put plainly: co-IP.

Data on one molecule can be found in publication doi:10.1101/817213.

No constants are given. Whether binding was seen depends on the method and setting. In cells and extracts the contact can be indirect. A result given as binding can be weak or reduced; the word gives no strength. Where a sequence is shown, tags or fusion partners need not be part of it.

B1: mouse ARMC9-3xFlag (protein, UniProt Q9D2I5 1-817)
chain: MGDILAHESELLGLVKEYLDFAEFEDTLKTFSKECKVKGKPLCKNVGGPLKKDSKSLVIQRDLVAAFDSGDQKAFFDLWEGHIPSSVRDTDSLAQKLEFYLHIHFAIYLLKYCRGRPDKQELDKRISYFKTYLETKGAALSQTTEFLPFYALPFVPNPMVHPSFKELFQDSWTPELKLKLEKFLALTFKANNTPKLLTIYKENGPNSKELLQQLHQQLVEAERRAMTYLKRYNKIQADYHNLIGVTAELVDSLEATVSGKMITPEYLQSVCVRLFSNQMRQSLAHSVDFTRPGTASTMLRASLAPEKLKDVPLLPSLDYEKLKKDLIWGSDRLKAFLLQALRWRLTTSHPGEQRETVLQAYISNDLLDCHSHNQRSVLQLLHSKSEAVRQYMARLINALASLAEGRLYLAQNTKVLRMLEGRLKEEDKDVITRENVLGALQKFSLRRPLQTAMIRDGLIFWLIDLLKDPDCLSDYTLEYSVALLMNLCLRSAGKNMCAKVAGLMLKVLSDLLGHENHEIQPYVNGALYSILSIPSIREEARAMGMEDILRCFIKEGNAEMIRQIEFIIKQLNSEDLLDGVLESDDDEDEDDEEDHDIMEADLDKDELIQPQLGELSGEKLLTTEYLGIMTNTGKARRKGPASVQWSGDEPLRRPVTPGGHRTGCPVLGDHLISPQNAQQARNGCLRAMPVAHPDDYKEGKPGVTGCGTSSSFMDHKPREWSPAGHQKSRLVPTAALGWPREMTQDPSSGHITREFVPAFTCKPQVPSTPETVEQNPLKAKALSLAPQFSSSGPQQASRPASTASSTRGLHSSQSIRK
As to B1, the binding entry is “binds”.
